Data as given in PubChem BioAssay AID1259254 (NCATS, 2017)
Here is one part, drawn at random, of about 59,000 deposited reagents. In the full data, about 1,550 (2.6%) are marked active. 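G2 share is only a proxy for re-replication; each gene was hit by three separate siRNAs, and active genes were retested.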 The raw values are shown without normalisation. Entries without a mark were called inactive. Reagents against one gene are numbered here. Not stated in the record: the amount of reagent.

Assay: 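Gene knock-downs that lead to re-replication, shown by excess G2 DNA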 (primary screen)
Cells: human HCT116 colorectal cancer cells
Knock-down reagent: single siRNA against human genes
Duration: 3 days
Read-out: 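Nuclei stained with Hoechst and imaged; cell-cycle phase assigned by DNA content; G2 share scaled per plate, non-targeting siRNA 0%, GMNN siRNA 100%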
Direction: G2 robust z-score and G2 cells, % of GMNN control: higher = more G2 cells, more excess DNA replication; raw share of cells in G2: higher = larger share of cells with G2 DNA content
Call rule: 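Active siRNAs have a G2 robust z of 5 or more median absolute deviations over the median, which in these data means about 38% or higher of GMNN control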

Target gene | reagent no. | G2 robust z-score | G2 cells, % of GMNN control | raw share of cells in G2 (%)
TSPAN17 | 1 | -0.72 | -2.1 | 3.3
TSPAN17 | 2 | -0.524 | -0.72 | 5.84
TSPAN17 | 3 | -0.216 | 1.45 | 4.67
SSX2 | 1 | -0.226 | 1.38 | 6.15
SSX2 | 2 | 3.44 | 27.2 | 13.9
SSX2 | 3 | -1.06 | -4.49 | 2.47
ZNF598 | 1 | -0.406 | 0.113 | 5.72
ZNF598 | 2 | -0.624 | -1.43 | 4.35
ZNF598 | 3 | 0.979 | 9.86 | 8.2
LRRC20 | 1 | -0.596 | -1.23 | 2.74
LRRC20 | 2 | -1.2 | -5.47 | 2.42
LRRC20 | 3 | -0.226 | 1.38 | 4.71
TERT | 1 | 2.38 | 19.7 | 11.8
TERT | 2 | 0.51 | 6.55 | 6.32
TERT | 3 | -0.265 | 1.1 | 5.1
PPP2R3B | 1 | -0.177 | 1.72 | 5.35
PPP2R3B | 2 | -1.18 | -5.32 | 2.7
PPP2R3B | 3 | 1.78 | 15.5 | 8.16
GNE | 1 | -0.493 | -0.504 | 5.43
GNE | 2 | 0.304 | 5.1 | 7.05
GNE | 3 | -0.96 | -3.79 | 2.47
KRAS | 1 | 2.48 | 20.4 | 12.5
KRAS | 2 | -1.34 | -6.46 | 3.22
KRAS | 3 | -0.816 | -2.77 | 3.19
FAM117B | 1 | -0.285 | 0.961 | 3.4
FAM117B | 2 | 0.647 | 7.52 | 6.35
FAM117B | 3 | 6.39 (active) | 47.9 | 17.7
SNHG32 | 1 | -0.649 | -1.6 | 2.75
SNHG32 | 2 | 1.07 | 10.5 | 7.86
SNHG32 | 3 | 1.38 | 12.7 | 9.35
MSH3 | 1 | -0.212 | 1.48 | 3.68
MSH3 | 2 | -1.3 | -6.19 | 2.97
MSH3 | 3 | -0.612 | -1.34 | 4.94
ZNF580 | 1 | 0.966 | 9.76 | 7.54
ZNF580 | 2 | -1.04 | -4.37 | 3.97
ZNF580 | 3 | 0.0256 | 3.15 | 5.41
SLC6A8 | 1 | 0.263 | 4.82 | 6.2
SLC6A8 | 2 | -0.517 | -0.672 | 3.73
SLC6A8 | 3 | 2.15 | 18.1 | 11.8
PRR36 | 1 | -1.18 | -5.35 | 0.915
PRR36 | 2 | -0.741 | -2.24 | 3.51
PRR36 | 3 | 1.12 | 10.8 | 9.04
RPS13 | 1 | 4.9 | 37.4 | 20.9
RPS13 | 2 | 3.17 | 25.3 | 14.2
RPS13 | 3 | 4.11 | 31.9 | 14.9
PLD4 | 1 | -1.04 | -4.35 | 2.04
PLD4 | 2 | -0.457 | -0.249 | 1.75
PLD4 | 3 | -0.295 | 0.892 | 4.45
DCSTAMP | 1 | -0.824 | -2.83 | 3.74
DCSTAMP | 2 | -0.468 | -0.323 | 4.08
DCSTAMP | 3 | 3.72 | 29.1 | 17.6
OSTCP2 | 1 | -0.0231 | 2.8 | 3.93
OSTCP2 | 2 | 2.65 | 21.6 | 11.9
OSTCP2 | 3 | -0.0391 | 2.69 | 4.22
PLAC9 | 1 | -0.258 | 1.15 | 3.56
PLAC9 | 2 | -0.102 | 2.25 | 4.39
PLAC9 | 3 | -0.88 | -3.22 | 2.03
ASCL1 | 1 | 1.07 | 10.5 | 7.89
ASCL1 | 2 | -0.314 | 0.759 | 4.98
ASCL1 | 3 | -0.787 | -2.57 | 4.16
PRELID3BP10 | 1 | -0.638 | -1.52 | 2.56
PRELID3BP10 | 2 | -0.483 | -0.434 | 3.45
PRELID3BP10 | 3 | 4.29 | 33.1 | 16
PRELID3BP10 | 4 | -0.653 | -1.63 | 2.57
PRELID3BP10 | 5 | 0.8 | 8.6 | 7.02
PRELID3BP10 | 6 | 0.705 | 7.93 | 6.17
ZNF492 | 1 | -0.451 | -0.209 | 2.72
ZNF492 | 2 | -0.412 | 0.0669 | 5.94
ZNF492 | 3 | 1.5 | 13.5 | 7.89

Entries above whose target name begins with R or r (3):
Target gene | reagent no. | G2 robust z-score | G2 cells, % of GMNN control | raw share of cells in G2 (%)
RPS13 | 1 | 4.9 | 37.4 | 20.9
RPS13 | 2 | 3.17 | 25.3 | 14.2
RPS13 | 3 | 4.11 | 31.9 | 14.9
